Test results as given in PubChem BioAssay (NCI).
Most of the hits are listed elsewhere, so they are rarer here than in the full data. Active and inactive are the calls of the source. Rule as the data show it: active = growth inhibition above about 70%; inactive = the rest.

Assay: NCI Yeast Anticancer Drug Screen. Data for the wt1 strain (AID 149);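 also: 0% = growth of vehicle-treated wt1 cultures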
Conditions: S. cerevisiae wt1 strain (SPY 50644) growth inhibition, stronger effect = higher value
Protocol: Growth inhibition of yeast strains with defined genetic alterations is measured as a screen for potential anti-cancer activity. Selected strains with alterations in DNA damage repair or cell cycle control were exposed to compounds and growth inhibition was measured relative to vehicle treated controls. The strain used in this assay is wt1

Measured: growth inhibition

CCOC1c2cc3c(cc2C(c2cc(OC)c(OC)c(OC)c2)C2C(=O)OCC12)OCO3 (stereo not given)
inactive: at 1.2 µM -2% | at 3.7 µM -2% | at 11.0 µM -5% | at 33.0 µM -4% | at 100.0 µM -2%

N#CC(=Nc1ccc(F)cc1)Nc1ccc(F)cc1
inactive: at 1.2 µM -5% | at 3.7 µM -3% | at 11.0 µM -10% | at 33.0 µM -10% | at 100.0 µM -9%

Cc1cc(C(c2ccccc2)(c2ccccc2)c2ccccc2)ccc1N
inactive: at 1.2 µM -1% | at 3.7 µM 1% | at 11.0 µM 2% | at 33.0 µM 0% | at 100.0 µM 2%

C=C(NC(=O)C(NC(=O)C(CCCCN)NC(=O)C1CSC(C)C2NC(=O)C(CC(C)C)NC(=O)C(NC(=O)C(CCC(N)=O)NC(=O)C(CC(C)C)NC(=O)C(Cc3ccccc3)NC(=O)C3CSC(C)C(NC(=O)C(NC(=O)C4CSC(C)C(NC(=O)C5CSCC(NC(=O)C(CCCCN)NC(=O)C(N)Cc6c[nH]c7ccccc67)C(=O)NC(CCC(=O)O)C(=O)NC(=C)C(=O)NC(CC(C)C)C(=O)N5)C(=O)N5CCCC5C(=O)NCC(=O)N4)C(C)C)C(=O)NCC(=O)NC(C)C(=O)NC(CC(C)C)C(=O)NC(CCC(N)=O)C(=O)N/C(=C/C)C(=O)N3)C(C)SCC(NC2=O)C(=O)NC(CC(N)=O)C(=O)N1)C(C)CC)C(=O)NC(CCCCN)C(=O)O (stereo not given)
inactive: at 1.2 µM -3% | at 3.7 µM -1% | at 11.0 µM 1% | at 33.0 µM -44% | at 100.0 µM 0%

O=C1Nc2ccccc2NC1C1OC(c2ccccc2)=CC1=O (stereo not given)
inactive: at 1.2 µM 13% | at 3.7 µM 18% | at 11.0 µM 18% | at 33.0 µM 1% | at 100.0 µM -8%

COC(=O)C1(NC(=O)C(CC(=O)OCc2ccccc2)NC(=O)OCc2ccccc2)CCCCCCC1 (stereo not given)
inactive: at 1.2 µM -2% | at 3.7 µM -3% | at 11.0 µM -6% | at 33.0 µM 14% | at 100.0 µM 22%

Cc1cc2c(C(C)C)c(O)c(O)c(C=Nc3ccc([N+](=O)[O-])cc3)c2c(O)c1-c1c(C)cc2c(C(C)C)c(O)c(O)c(C=Nc3ccc([N+](=O)[O-])cc3)c2c1O
inactive: at 1.2 µM -2% | at 3.7 µM -3% | at 11.0 µM -2% | at 33.0 µM -3% | at 100.0 µM 0%

CCCCN1C(=O)C(=O)C(C(=O)OCC)C1C(=O)OCC (stereo not given)
inactive: at 1.2 µM -1% | at 3.7 µM -3% | at 11.0 µM 0% | at 33.0 µM 0% | at 100.0 µM 5%
